This assay deals with Klenow fragment of E. coli DNA polymerase I (Escherichia coli, UniProt P00582). Put plainly: Steady-state kinetic assay of unnatural triphosphate insertion. It counts as biochemical. To be noted: insertion opposite dY = dA in template.

By UniProt entry, the sequences of proteins in these tests, tags left out. Residues count along the entry.
UniProt P00582, 324-928 limits assumed: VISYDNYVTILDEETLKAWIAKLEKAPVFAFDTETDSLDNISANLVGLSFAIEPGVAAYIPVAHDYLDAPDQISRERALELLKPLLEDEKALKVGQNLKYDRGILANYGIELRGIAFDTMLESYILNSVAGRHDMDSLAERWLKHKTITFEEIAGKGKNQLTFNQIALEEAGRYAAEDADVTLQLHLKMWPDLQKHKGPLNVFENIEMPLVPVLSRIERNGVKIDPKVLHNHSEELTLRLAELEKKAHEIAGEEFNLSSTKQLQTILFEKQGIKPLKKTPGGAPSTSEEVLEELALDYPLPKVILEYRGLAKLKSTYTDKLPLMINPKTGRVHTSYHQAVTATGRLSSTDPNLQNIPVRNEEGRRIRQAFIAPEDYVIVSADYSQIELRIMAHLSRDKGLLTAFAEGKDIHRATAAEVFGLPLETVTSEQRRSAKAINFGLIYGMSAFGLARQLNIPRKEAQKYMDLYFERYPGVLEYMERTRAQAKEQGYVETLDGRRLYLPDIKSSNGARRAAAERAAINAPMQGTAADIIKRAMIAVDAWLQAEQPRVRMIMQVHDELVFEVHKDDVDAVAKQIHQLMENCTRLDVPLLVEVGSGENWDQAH

Certain results were filed several times, with different values. They are shown here; other results are not. There may be further records. The values listed for one entry differ, and nothing given here explains why; they may come from other doses, times, organisms or constructs than stated.

Regarding `Cc1cn([C@H]2C[C@H](O)[C@@H](COP(=O)(O)OP(=O)(O)OP(=O)(O)O)O2)c(=O)[nH]c1=O` [dTTP], the Km – broadly, the concentration of substrate that gives half-maximal velocity – was 460 nM and 50 nM.

For the origin of these results see patent publication US12497642B2, “Incorporation of unnatural nucleotides and methods of use in vivo thereof” (THE SCRIPPS RESEARCH INSTITUTE, priority 2017, dated 2025).
